Laboratory results taken from paper PMC10144058, “New Hybrid Scaffolds Based on 5-FU/Curcumin: Synthesis, Cytotoxic, Antiproliferative and Pro-Apoptotic Effect” (Pharmaceutics, 2023).

Assays:
[1] = tested on: SW480 cells; assay: Cell viability, sulforhodamine B (SRB) assay; assay type: cell-based, human; conditions: for SI CHO-K1/SW480: IC50 CHO-K1 relative to IC50 SW480; for SI HaCaT/SW480: IC50 HaCaT relative to IC50 SW480
Experimental: (§1) SW480 (colon adenocarcinoma) and SW620 (derived metastatic) malignant cell lines, and the non-malignant lines HaCaT (human keratinocytes) and CHO-K1 (Chinese Hamster Ovary), were obtained from the European Collection of Authenticated Cell Cultures (ECACC, Porton Down, Salisbury, UK). The cells were maintained in Dulbecco’s Modified Eagle’s Medium (DMEM), supplemented with 10% equine serum previously inactivated at 56 °C, 1% penicillin/streptomycin, and 1% non-essential amino acids, and incubated at 37 °C in an atmosphere with 5% CO2. To carry out the experiments, the serum was diluted to 3% and additionally supplemented with […] insulin, […] transferrin, and 5 ng/mL selenium. Cells were used for experimentation when they reached 80–90% confluence, using a 1X trypsin enzymatic disintegration method. To avoid contamination by Mycoplasma spp., cell cultures were periodically analyzed by polymerase chain reaction (PCR).
(§2) Cell viability was evaluated with a sulforhodamine B (SRB) assay. This technique provides an index of protein contents in living and adherent cells, whose optical density can be related to cell concentration. Initially, 20,000 cells were seeded per well in 96-well culture plates. An initial adherence period of 24 h was performed at 37 °C, 5% CO2, and after this, the medium was replaced by another that contained the hybrid compounds in different concentrations. Then, the cells were left incubating for 24 and 48 h under the same conditions previously described. After the respective incubation times, the cells were fixed with trichloroacetic acid (50% v/v) for 1 h at 4 °C and stained with 0.4% (p/v) of SRB. Subsequently, washings with 1% acetic acid were carried out to eliminate possible nonspecific bindings, and after solubilization with 10 mM Tris-base, the absorbance was read at 492 nm in a microplate reader (Mindray MR-96A). All the experiments were carried out in triplicate.

[2] = tested on: SW620 cells; assay: Cell viability, sulforhodamine B (SRB) assay; assay type: cell-based, human; conditions: for SI CHO-K1/SW620: IC50 CHO-K1 relative to IC50 SW620; for SI HaCaT/SW620: IC50 HaCaT relative to IC50 SW620
Experimental: as §1, §2

Row | SMILES | SI CHO-K1/SW480 ([1]; 24 h) | SI CHO-K1/SW480 ([1]; 48 h) | SI HaCaT/SW480 ([1]; 48 h) | SI CHO-K1/SW620 ([2]; 24 h) | SI CHO-K1/SW620 ([2]; 48 h) | SI HaCaT/SW620 ([2]; 48 h) | SI HaCaT/SW480 ([1]; 24 h) | SI HaCaT/SW620 ([2]; 24 h)
1 | O=c1[nH]cc(F)c(=O)[nH]1 [Compound 5-FU, 5-fluorouracil, reference compound] | 0.35 | 0.99 | 0.68 | 0.60 | 0.96 | 0.66 |  | 
2 | COc1cc(/C=C/C(=O)c2ccc(OCCn3cc(Cn4cc(F)c(=O)[nH]c4=O)nn3)cc2)ccc1O [Compound 6a, (E)-5-fluoro-1-((1-(2-(4-(3-(4-hydroxy-3-methoxyphenyl)acryloyl)phenoxy)ethyl)-1H-1,2,3-triazol-4-yl)methyl)pyrimidine-2,4(1H,3H)-dione] | 1.10 | 4.24 | 1.61 | <1 | 1.63 | 0.62 | 0.95 | <1
3 | COc1cc(/C=C/C(=O)c2ccc(OCCCn3cc(Cn4cc(F)c(=O)[nH]c4=O)nn3)cc2)ccc1O [Compound 6b, (E)-5-fluoro-1-((1-(3-(4-(3-(4-hydroxy-3-methoxyphenyl)acryloyl)phenoxy)propyl)-1H-1,2,3-triazol-4-yl)methyl)pyrimidine-2,4(1H,3H)-dione] | 1.06 | 2.71 | 1.07 | 0.57 | 1.38 | 0.55 | 1.20 | 0.64
4 | COc1cc(/C=C/C(=O)c2ccc(OCCCCn3cc(Cn4cc(F)c(=O)[nH]c4=O)nn3)cc2)ccc1O [Compound 6c, (E)-5-fluoro-1-((1-(4-(4-(3-(4-hydroxy-3-methoxyphenyl)acryloyl)phenoxy)butyl)-1H-1,2,3-triazol-4-yl)methyl)pyrimidine-2,4(1H,3H)-dione] | 0.86 | 1.86 | 1.17 | 0.31 | 1.09 | 0.68 | 1.49 | 0.54
5 | COc1cc(/C=C/C(=O)c2ccc(OCCCCCn3cc(Cn4cc(F)c(=O)[nH]c4=O)nn3)cc2)ccc1O [Compound 6d, (E)-5-fluoro-1-((1-(5-(4-(3-(4-hydroxy-3-methoxyphenyl)acryloyl)phenoxy)pentyl)-1H-1,2,3-triazol-4-yl)methyl)pyrimidine-2,4(1H,3H)-dione] | 0.79 | 11.56 | 8.36 | 0.34 | 3.74 | 2.71 | 2.71 | 1.15
6 | COc1cc(/C=C/C(=O)c2ccc(OCCCCCCn3cc(Cn4cc(F)c(=O)[nH]c4=O)nn3)cc2)ccc1O [Compound 6e, (E)-5-fluoro-1-((1-(6-(4-(3-(4-hydroxy-3-methoxyphenyl)acryloyl)phenoxy)hexyl)-1H-1,2,3-triazol-4-yl)methyl)pyrimidine-2,4(1H,3H)-dione] | 0.87 | 1.90 | 1.08 | <1 |  | 1.36 | 1.98 | <1
7 | COc1cc(/C=C/C(=O)c2ccc(OCCCCCCCCn3cc(Cn4cc(F)c(=O)[nH]c4=O)nn3)cc2)ccc1O [Compound 6f, (E)-5-fluoro-1-((1-(8-(4-(3-(4-hydroxy-3-methoxyphenyl)acryloyl)phenoxy)octyl)-1H-1,2,3-triazol-4-yl)methyl)pyrimidine-2,4(1H,3H)-dione] |  | >3 | 1.18 |  |  | <1 |  | 
8 | COc1cc(/C=C/C(=O)CC(=O)/C=C/c2ccc(O)c(OC)c2)ccc1O [Curcumin, curcumin] | 0.24 | 0.40 | 0.32 | 0.12 | 1.63 | 1.30 | >1 | 
